# Source: PubChem BioAssay AID504774 (Drosophila RNAi Screening Center, 2011)
# Screen: 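Knock-downs that shift viability of MMS-exposed cells relative to untreated ones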 (primary screen)
# System: Drosophila Kc167 cells
# Reagent: long dsRNA against Drosophila genes, about 0.25 µg dsRNA per well
# Duration: about 6 days: 3 days knock-down, then 3 days with or without MMS
# Conditions: methyl methanesulphonate 0.004% (w/v) for 3 days after knock-down
# Detection: 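Viability in wells given MMS, read as ATP luminescence, normalised by quantiles plate by plate and averaged across replicates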
# Reading the numbers: mean viability with MMS and viability with MMS: higher = more surviving cells after MMS
# The screen tested about 23,000 reagents; this is a random part of those with a known target gene and a result. 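Values are quantile-normalised luminescence on an arbitrary scale; higher means more cells surviving MMS.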 A plus sign joins genes that one reagent is predicted to hit. Not all columns of the deposit are shown.
gene,DRSC id,mean viability with MMS,"viability with MMS, replicate 1"
MED27 (Mediator complex subunit 27),DRSC12205,3.27e6,3.79e6
Hsp70Aa + Hsp70Bb + Hsp70Ba + 3 more,DRSC15380,3.41e6,3.91e6
CG7406,DRSC20042,3.55e6,4.03e6
CG10479,DRSC09733,3.52e6,3.96e6
Ugt49C1 (UDP-glycosyltransferase family 49 member C1),DRSC04252,3.51e6,3.97e6
CG42674,DRSC10066,2.18e6,4.31e6
CG42674,DRSC10067,3.31e6,3.75e6
CG42674,DRSC10811,3.53e6,3.98e6
nompA (no mechanoreceptor potential A),DRSC06329,3.66e6,4.10e6
CG8349,DRSC03083,3.52e6,3.99e6
scyl (scylla),DRSC11392,3.90e6,4.32e6
CG33268,DRSC10143,3.46e6,3.86e6
endos (endosulfine),DRSC10658,3.43e6,3.92e6
plu (plutonium),DRSC07665,3.47e6,3.94e6
fs(1)Ya (female sterile (1) Young arrest),DRSC18776,3.40e6,3.84e6
fs(1)Ya (female sterile (1) Young arrest),DRSC23058,3.61e6,4.08e6
Ski6,DRSC02491,3.54e6,3.97e6
dpr8 (defective proboscis extension response 8),DRSC19406,3.69e6,4.09e6
dpr8 (defective proboscis extension response 8),DRSC19600,3.69e6,4.21e6
dpr8 (defective proboscis extension response 8),DRSC19938,3.63e6,4.15e6
dpr8 (defective proboscis extension response 8),DRSC19939,3.61e6,4.06e6
Pfk (Phosphofructokinase),DRSC07506,3.76e6,4.29e6
Yif1 (Yip1-interacting factor 1),DRSC15817,3.57e6,4.10e6
CG6951,DRSC10755,3.37e6,3.91e6
Ugt303B2 (UDP-glycosyltransferase family 303 member B2),DRSC14198,3.42e6,3.74e6
Ugt303B2 (UDP-glycosyltransferase family 303 member B2),DRSC22864,3.24e6,3.91e6
conv (convoluted),DRSC07213,3.59e6,4.01e6
Gr98c (Gustatory receptor 98c),DRSC22212,3.46e6,3.90e6
CG33234,DRSC07994,3.50e6,3.93e6
ATP8B (ATPase 8B),DRSC14961,3.50e6,4.02e6
Inx5 (Innexin 5),DRSC20051,3.63e6,4.16e6
CG11791,DRSC14391,3.33e6,3.78e6
tld (tolloid),DRSC17084,3.42e6,3.81e6
rdog (red dog mine),DRSC14431,3.75e6,4.28e6
Takl2 (Tak1-like 2),DRSC15650,3.82e6,4.08e6
bsf (bicoid stability factor),DRSC02035,3.40e6,3.78e6
CG5756,DRSC06950,3.63e6,4.06e6
CG12964,DRSC06266,3.18e6,4.03e6
CG12964,DRSC23210,3.35e6,3.95e6
CG13575,DRSC04211,3.68e6,4.19e6
CG13575,DRSC22851,3.35e6,3.86e6
Kat60 (Katanin 60),DRSC12378,3.49e6,4.00e6
E(z) (Enhancer of zeste),DRSC11147,3.49e6,3.97e6
Prp18,DRSC16802,3.44e6,3.90e6
CG13088,DRSC02192,3.55e6,4.20e6
eIF2Bepsilon (eukaryotic translation initiation factor 2B subunit epsilon),DRSC18769,3.32e6,3.85e6
Ir8a (Ionotropic receptor 8a),DRSC17817,3.59e6,4.11e6
Ir8a (Ionotropic receptor 8a),DRSC17869,3.71e6,4.16e6
CG15196,DRSC19643,3.50e6,4.02e6
uzip (unzipped),DRSC04722,3.55e6,4.04e6
Ankrd49,DRSC01894,3.47e6,3.90e6
CG31467,DRSC16048,3.60e6,4.06e6
Tip60 (Tat interactive protein 60kDa),DRSC18661,3.01e6,3.66e6
fipi (factor of interpulse interval),DRSC00465,3.44e6,3.85e6
Xxylt (Xyloside xylosyltransferase),DRSC04107,3.29e6,3.89e6
Scgdelta (Sarcoglycan delta),DRSC18544,3.63e6,4.16e6
CG31861,DRSC21665,3.48e6,3.93e6
CG4836,DRSC15659,3.59e6,4.13e6
Spn100A (Serpin 100A),DRSC14596,3.57e6,4.04e6
CG9568,DRSC03265,3.78e6,4.06e6
CG15048 (retired record),DRSC19624,3.22e6,3.56e6
CG42676,DRSC08227,3.39e6,3.81e6
CG42676,DRSC08392,3.36e6,3.83e6
Su(H) (Suppressor of Hairless),DRSC03445,3.42e6,3.95e6
amrt (amaretto),DRSC19378,3.52e6,4.00e6
CG11779,DRSC14384,3.40e6,3.89e6
CG5246,DRSC15751,3.59e6,4.12e6
kuz (kuzbanian),DRSC03555,3.77e6,4.39e6
sgg (shaggy),DRSC17228,3.66e6,4.04e6
sgg (shaggy),DRSC17722,3.61e6,3.94e6
sgg (shaggy),DRSC18832,3.75e6,4.36e6
Spag1 (Spag1 axonemal dynein assembly factor),DRSC15331,3.60e6,4.10e6
CG6766,DRSC02991,3.59e6,4.01e6
CG32444,DRSC11677,3.61e6,4.13e6
Asph (Aspartyl beta-hydroxylase),DRSC06783,3.58e6,4.09e6
Asph (Aspartyl beta-hydroxylase),DRSC07171,3.52e6,3.97e6
SLC5A11 (Sodium/solute co-transporter-like 5A11),DRSC03088,3.69e6,4.21e6
"ATPsynbeta (ATP synthase, beta subunit)",DRSC17194,3.38e6,3.84e6
FRG1 (FSHD region gene 1),DRSC10648,3.69e6,4.17e6
Osi15 (Osiris 15),DRSC12178,3.47e6,3.82e6
Cyp4d1 (Cytochrome P450 4d1),DRSC17694,3.52e6,4.04e6
Cyp4d1 (Cytochrome P450 4d1),DRSC18456,3.49e6,4.06e6
CG31068,DRSC13820,3.61e6,4.16e6
Hus1-like,DRSC12353,3.55e6,3.94e6
LRR (Leucine-rich repeat),DRSC06444,3.45e6,3.87e6
CG42741,DRSC04593,3.54e6,4.15e6
CG42741,DRSC22045,3.62e6,4.05e6

Sorted by “mean viability with MMS” (highest first): some entries from above.
gene,DRSC id,mean viability with MMS,"viability with MMS, replicate 1"
rdog (red dog mine),DRSC14431,3.75e6,4.28e6
Inx5 (Innexin 5),DRSC20051,3.63e6,4.16e6
conv (convoluted),DRSC07213,3.59e6,4.01e6
CG33234,DRSC07994,3.50e6,3.93e6
ATP8B (ATPase 8B),DRSC14961,3.50e6,4.02e6
Gr98c (Gustatory receptor 98c),DRSC22212,3.46e6,3.90e6
tld (tolloid),DRSC17084,3.42e6,3.81e6
CG11791,DRSC14391,3.33e6,3.78e6
Ugt303B2 (UDP-glycosyltransferase family 303 member B2),DRSC22864,3.24e6,3.91e6
